PubChem BioAssay AID2685 (National Center for Advancing Translational Sciences (NCATS), 2010)
The list shows a part of the results. These are further read-outs of the screen, such as a control signal, another cell line or another target. No call is given for them. Most of these compounds were active or inconclusive in the main read-out, so they are no random draw. Words in brackets tell the shape of the fitted curve; partial curves, single points and poor fits give uncertain potencies.

Experiment: qHTS Assay for Lipid Storage Modulators in Drosophila S3 Cells;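 on cell number change: cells counted by Cell Tracker Red CMTPX staining in the red channel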
Settings: BODIPY lipid droplet fluorescence, 18-24 h; for cell number change: measured here: cell count max response, cells fed with added oleic acid
Outline: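 Drosophila S3 cells loaded with oleic acid (400 uM, as added) and compounds at several concentrations; lipid droplets imaged by 488-nm laser-scanning cytometry, 500–530 nm intensity and object ratio to cell channel. Percent activity normalized to 20 uM Triacsin C.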

[1] = measured here: lipid fluorescence (Fed channel) AC50, cells fed with added oleic acid
[2] = measured here: cell number channel AC50, cells fed with added oleic acid

## COCC(=O)N(Cc1cc2cc(C)ccc2[nH]c1=O)c1ccc(C)c(C)c1
  cell number change: -8.03%
[1]
  AC50: 29.1 µM [falling, single point]

## O=C(CCCN1C(=O)S/C(=C\C=C\c2ccccc2)C1=O)Nc1ccc(O)cc1
  cell number change: -6.57%
[1]
  AC50: 35.5 µM [rising, single point]

## CCC(C)(NC(=O)c1ccc(=O)[nH]c1)C(=O)NC1CCCC1 (stereo not given)
  cell number change: -58%
[2]
  AC50: 25.9 µM [falling, partial curve, poor fit]
[1]
  AC50: 29.1 µM [falling, single point]

## COc1cc2c(cc1NC(=O)COC(=O)c1ccccc1)oc1ccccc12
[2]
  AC50: 0.13 µM [rising, full curve, poor fit]
[1]
  AC50: 0.651 µM [rising, partial curve, poor fit]

## Cn1ccnc1SCC(=O)c1c[nH]c2ccccc12
[1]
  AC50: 0.082 µM [rising, partial curve, poor fit]

## COc1cccc(CN(C)C(=O)CNC(=O)c2cccs2)c1OC
  cell number change: 4.29%
[2]
  AC50: 0.731 µM [falling, full curve]
[1]
  AC50: 1.03 µM [falling, full curve]

## COc1ccc(NC(=O)COc2cccc3c2CCN(C)C3=O)c(OC)c1
  cell number change: -26.7%

## COc1ccc(Nc2ccc(N3C(=O)CCC3=O)cc2[N+](=O)[O-])cn1
  cell number change: 4.88%
[1]
  AC50: 32.6 µM [rising, single point]

## NC(=O)c1cccc2cc3ccccc3cc12
  cell number change: -69.4%
[2]
  AC50: 0.116 µM [falling, full curve, poor fit]

## O=C(O)c1ccc(-c2nc(-c3ccc(Cl)cc3Cl)cs2)cc1
  cell number change: -7.52%
[1]
  AC50: 6.51 µM [falling, single point]

## Cc1cccn2c(CN(C)C3CCCc4ccccc43)c(C(=O)N3CCOCC3)nc12 (stereo not given)
  cell number change: 3.56%
[1]
  AC50: 3.66 µM [rising, single point]

## CC(Sc1nnc(-c2cccs2)n1-c1ccccc1)C(=O)NCc1ccc2c(c1)OCO2 (stereo not given)
  cell number change: -1.43%

## COc1ccc(C2=NN(C(C#N)c3ccc(OC)c(OC)c3)C(c3ccccc3)C2)cc1 (stereo not given)
[2]
  AC50: 1.3 µM [rising, partial curve]
[1]
  AC50: 0.461 µM [rising, single point]

## CCOc1cc2[nH]c(=S)n(Cc3ccc(C(=O)NCCCOC)cc3)c(=O)c2cc1OCC
  cell number change: 101%
[2]
  AC50: 6.51 µM [falling, single point]

## Cc1c(CCO)c(=O)oc2n[nH]c(-c3ccccc3)c12
  cell number change: 57.3%
[2]
  AC50: 29.1 µM [rising, single point]

## O=C(O)c1cccc(C(=O)Nc2cccc(NC(=O)C3CCCO3)c2)c1 (stereo not given)
  cell number change: -1.35%
[1]
  AC50: 1.84 µM [falling, partial curve]

## CC(C)CNC(=O)COC(=O)c1ccccc1SCC(=O)NCC(C)C
  cell number change: 68.6%
[1]
  AC50: 18.4 µM [rising, partial curve]

## O=C(CNC1CCN(Cc2ccccc2)CC1)Nc1ccc(S(=O)(=O)N2CCCCC2)cc1
  cell number change: -26.8%
[2]
  AC50: 0.517 µM [falling, full curve]
[1]
  AC50: 20.6 µM [falling, partial curve, poor fit]

## CCOC(=O)C1CCCN(Cc2ccc3c(c2)OCO3)C1 (stereo not given)
  cell number change: 25.3%
[1]
  AC50: 6.51 µM [rising, full curve, poor fit]

## O=C(NNc1c(F)c(F)cc(F)c1F)c1cc2ccccc2oc1=O
  cell number change: 12.7%

## Cc1cc(N2CCOCC2)ccc1/C=C\[N+](=O)[O-]
  cell number change: -41.2%
[2]
  AC50: 11.6 µM [falling, partial curve]
[1]
  AC50: 4.61 µM [falling, full curve]

## CCCCC(=O)N/N=C(/C)C1=C(C)C(C)(C)OC1=O
  cell number change: 79.6%
[1]
  AC50: 0.259 µM [rising, partial curve, poor fit]

## COc1cc(NC(=O)c2cccc(F)c2)cc(OC)c1OC
[2]
  AC50: 0.651 µM [rising, single point]
[1]
  AC50: 0.58 µM [rising, single point]

## Cc1cc(C)n(C(=O)CNC(=O)c2ccco2)n1
[2]
  AC50: 6.51 µM [falling, single point]
[1]
  AC50: 5.8 µM [falling, full curve]

## N#Cc1ccccc1NC(=O)COC(=O)COc1ccccc1[N+](=O)[O-]
  cell number change: -46.4%
[2]
  AC50: 0.651 µM [falling, full curve]

## CCN(CC)CCOc1ccc2c(c1)C(=NO)c1cc(OCCN(CC)CC)ccc1-2
[1]
  AC50: 4.11 µM [falling, single point]

## O=C(O)c1cccnc1SC1CC(=O)N(c2cccc3ccccc23)C1=O (stereo not given)
  cell number change: -17.8%
[1]
  AC50: 29.1 µM [falling, single point]

## CCOC(=O)C1CCCN(S(=O)(=O)c2c(C(=O)N3CCCCC3)c(C)n(C)c2C)C1 (stereo not given)
  cell number change: 21.7%
[1]
  AC50: 29.1 µM [rising, single point]

## CC1CC(=O)c2cnc(NCC3CCCO3)nc2C1 (stereo not given)
  cell number change: -86.7%
[2]
  AC50: 23.1 µM [falling, partial curve, poor fit]
[1]
  AC50: 20.6 µM [falling, partial curve]

## Cc1cccc2cc(COC(=O)c3cccs3)c(=O)[nH]c12
  cell number change: 13.2%
[1]
  AC50: 0.651 µM [rising, full curve, poor fit]

## Oc1ccc(Cl)cc1Cc1cc(Cl)ccc1O
  cell number change: -84.8%
[2]
  AC50: 20.6 µM [falling, partial curve]
[1]
  AC50: 23.1 µM [falling, partial curve]

## CN(c1c[nH]c(=O)[nH]c1=O)C1CCCCC1
  cell number change: -5.93%
[1]
  AC50: 0.291 µM [falling, full curve, poor fit]

## CC1(C)C(=O)NCCN1C(=O)CC1C(=O)NCCN1CC(c1ccccc1)c1ccccc1 (stereo not given)
  cell number change: 5.79%
[1]
  AC50: 0.82 µM [falling, full curve, poor fit]

## O=C(NNC(=S)Nc1ccc(Br)cc1)c1ccccc1
  cell number change: 14.2%
[1]
  AC50: 6.51 µM [rising, single point]

## COc1cc(OC)cc(-n2nc(C(=O)NCCCN3CCOCC3)c3ccccc3c2=O)c1
  cell number change: 8.72%
[1]
  AC50: 6.51 µM [rising, full curve]

## O=C(Nc1ccc(S(=O)(=O)NC2=NCCCCC2)cc1)c1ccco1
  cell number change: 6.85%
[2]
  AC50: 6.51 µM [rising, single point]
[1]
  AC50: 6.51 µM [rising, partial curve, poor fit]

## COc1ccc(-c2[nH]ncc2CN2CCC(OCc3ccccc3)CC2)c(F)c1
  cell number change: 1.43%
[1]
  AC50: 0.092 µM [falling, full curve, poor fit]

## O=[N+]([O-])c1ccc(N2CCN(Cc3ccc([N+](=O)[O-])o3)CC2)cc1
  cell number change: -23.9%
[1]
  AC50: 29.1 µM [falling, single point]

## CN(Cc1ccccc1Cl)C(=O)C1CCC(=O)N(C2CCCCCC2)C1 (stereo not given)
  cell number change: 13.8%
[1]
  AC50: 0.651 µM [rising, full curve, poor fit]

## O=C(OC1CCS(=O)(=O)c2sccc21)c1ccccc1 (stereo not given)
  cell number change: 17.6%

## O=C(COC(=O)c1nc(-c2ccccc2)n(-c2cccc(C(F)(F)F)c2)n1)NCc1cccs1
  cell number change: 12.4%
[1]
  AC50: 0.731 µM [rising, full curve, poor fit]

## CCN(CC)S(=O)(=O)c1ccc(NC(=O)c2ccc(Sc3nncn3C)c([N+](=O)[O-])c2)cc1
  cell number change: 15%
[1]
  AC50: 0.731 µM [rising, full curve, poor fit]

## O=C1CC(C(=O)O)c2ccccc2N1 (stereo not given)
  cell number change: -30.8%
[2]
  AC50: 10.3 µM [falling, partial curve, poor fit]

## Cc1cc(C)nc(NC(=NCCc2c[nH]c3ccccc23)NC(=O)Nc2ccc(Cl)cc2)n1
  cell number change: -29%
[1]
  AC50: 14.6 µM [falling, partial curve]

## Cc1cccc(NS(=O)(=O)c2ccc(C)c(C(=O)NCc3ccncc3)c2)c1
  cell number change: 37.2%
[2]
  AC50: 7.31 µM [rising, partial curve, poor fit]
[1]
  AC50: 8.2 µM [rising, partial curve, poor fit]

## CSC1=NCCCN1C(=O)c1c(-c2ccccc2Cl)noc1C
  cell number change: -60.1%
[2]
  AC50: 6.51 µM [falling, full curve]
[1]
  AC50: 6.51 µM [falling, full curve]

## CC(C)N(C(=O)COC(=O)Cn1cnc2ccccc21)c1ccccc1
  cell number change: 4%

## COC(=O)CSc1nnc(CSc2nc(C)cc(C)n2)n1Cc1ccco1
  cell number change: -84.1%
[2]
  AC50: 29.1 µM [falling, single point]

## CCN(CC(=O)NCc1ccco1)S(=O)(=O)c1ccc(F)cc1
  cell number change: 1.26%

## O=[N+]([O-])c1cccc(N(CC(O)CN2CCCCC2)S(=O)(=O)c2ccccc2)c1 (stereo not given)
  cell number change: 21.4%
[1]
  AC50: 3.66 µM [falling, single point]

## COC(=O)Nc1cc(C)nc2ccccc12
  cell number change: 1.97%
[1]
  AC50: 29.1 µM [rising, single point]

## COc1ccc(C(=O)O)cc1S(=O)(=O)Nc1ccccc1C(=O)NCc1ccc2c(c1)OCO2
  cell number change: 6.12%
[1]
  AC50: 0.92 µM [falling, full curve]

## Cc1onc(-c2ccccc2Cl)c1C(=O)Nc1cccnc1
[1]
  AC50: 0.291 µM [falling, partial curve, poor fit]

## O=C(NN=C1C2CC3CC(C2)CC1C3)c1cccc(S(=O)(=O)N2CCOCC2)c1
[2]
  AC50: 0.146 µM [rising, full curve, poor fit]
[1]
  AC50: 0.13 µM [rising, full curve, poor fit]

## OCc1n[nH]c(CO)n1
  cell number change: -1.79%
[1]
  AC50: 29.1 µM [falling, single point]

## O=C(Nc1ccccc1)C1CCCN1C(=O)Nc1ccccc1[N+](=O)[O-] (stereo not given)
  cell number change: -29.7%
[1]
  AC50: 0.82 µM [falling, partial curve]

## O=C(NC1CCN(C(=O)N2c3ccccc3Sc3ccccc32)CC1)c1ccco1
  cell number change: -33%
[2]
  AC50: 23.1 µM [falling, single point]
[1]
  AC50: 13 µM [falling, partial curve]
